Results on one molecule are retold here after article doi:10.1101/2020.09.21.305680.

Results are given in words; binding and its absence hold for the method and conditions named. Some results given as binding are weak or reduced against the parent protein; the word gives no strength.

For one assay, the target named is T1, Sld3 (S. cerevisiae) (UniProt P53135).
T1 sequence: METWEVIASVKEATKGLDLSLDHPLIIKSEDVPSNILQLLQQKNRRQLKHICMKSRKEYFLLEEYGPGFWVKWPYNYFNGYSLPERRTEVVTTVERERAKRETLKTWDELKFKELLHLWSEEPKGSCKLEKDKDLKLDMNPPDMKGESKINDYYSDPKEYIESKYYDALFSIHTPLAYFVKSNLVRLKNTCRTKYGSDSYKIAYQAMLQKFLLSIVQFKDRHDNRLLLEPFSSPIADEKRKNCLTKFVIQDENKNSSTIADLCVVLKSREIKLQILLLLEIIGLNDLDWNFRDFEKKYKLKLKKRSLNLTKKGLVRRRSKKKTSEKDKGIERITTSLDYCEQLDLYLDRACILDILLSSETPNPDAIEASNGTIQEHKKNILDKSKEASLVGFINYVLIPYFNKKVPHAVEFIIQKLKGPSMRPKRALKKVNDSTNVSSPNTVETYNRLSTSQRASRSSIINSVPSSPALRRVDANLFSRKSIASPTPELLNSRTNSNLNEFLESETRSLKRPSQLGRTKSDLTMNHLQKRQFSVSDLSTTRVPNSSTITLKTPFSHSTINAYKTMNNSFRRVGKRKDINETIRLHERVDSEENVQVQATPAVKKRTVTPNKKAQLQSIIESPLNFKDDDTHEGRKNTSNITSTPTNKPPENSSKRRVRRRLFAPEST
Put plainly: two-hybrid.

Assay [1] has as its target T2, Sld3 P623Q (S. cerevisiae) (UniProt P53135).
T2 sequence: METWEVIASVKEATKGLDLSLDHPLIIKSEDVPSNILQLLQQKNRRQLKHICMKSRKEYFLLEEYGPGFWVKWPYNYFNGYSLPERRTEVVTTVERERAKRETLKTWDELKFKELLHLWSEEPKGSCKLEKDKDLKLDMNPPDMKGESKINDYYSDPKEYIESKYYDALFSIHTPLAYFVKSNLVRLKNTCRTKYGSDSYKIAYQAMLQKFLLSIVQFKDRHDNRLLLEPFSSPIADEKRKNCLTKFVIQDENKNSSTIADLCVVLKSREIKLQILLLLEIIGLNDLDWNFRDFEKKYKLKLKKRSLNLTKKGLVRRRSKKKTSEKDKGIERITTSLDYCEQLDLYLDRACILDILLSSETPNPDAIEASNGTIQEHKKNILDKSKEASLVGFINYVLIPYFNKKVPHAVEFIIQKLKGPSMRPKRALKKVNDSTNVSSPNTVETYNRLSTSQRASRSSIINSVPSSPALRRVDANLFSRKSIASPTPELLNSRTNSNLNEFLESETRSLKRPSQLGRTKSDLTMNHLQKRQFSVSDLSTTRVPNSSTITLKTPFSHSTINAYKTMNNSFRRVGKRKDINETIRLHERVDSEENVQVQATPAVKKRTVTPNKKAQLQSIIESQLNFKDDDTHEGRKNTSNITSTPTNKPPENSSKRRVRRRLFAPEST
Put plainly: two-hybrid.

B1: Esa1 (protein, UniProt Q08649 1-445)
chain: MSHDGKEEPGIAKKINSVDDIIIKCQCWVQKNDEERLAEILSINTRKAPPKFYVHYVNYNKRLDEWITTDRINLDKEVLYPKLKATDEDNKKQKKKKATNTSETPQDSLQDGVDGFSRENTDVMDLDNLNVQGIKDENISHEDEIKKLRTSGSMTQNPHEVARVRNLNRIIMGKYEIEPWYFSPYPIELTDEDFIYIDDFTLQYFGSKKQYERYRKKCTLRHPPGNEIYRDDYVSFFEIDGRKQRTWCRNLCLLSKLFLDHKTLYYDVDPFLFYCMTRRDELGHHLVGYFSKEKESADGYNVACILTLPQYQRMGYGKLLIEFSYELSKKENKVGSPEKPLSDLGLLSYRAYWSDTLITLLVEHQKEITIDEISSMTSMTTTDILHTAKTLNILRYYKGQHIIFLNEDILDRYNRLKAKKRRTIDPNRLIWKPPVFTASQLRFAW
Consider B1, for which the binding result (in the assay with Sld3 (S. cerevisiae); in assay [1]) was “binds” each time.
